Measured values from paper PMC12646663.

Protein sequences, listed by entry. Tags and fused reporters are not part of them.
UniProt Q61466: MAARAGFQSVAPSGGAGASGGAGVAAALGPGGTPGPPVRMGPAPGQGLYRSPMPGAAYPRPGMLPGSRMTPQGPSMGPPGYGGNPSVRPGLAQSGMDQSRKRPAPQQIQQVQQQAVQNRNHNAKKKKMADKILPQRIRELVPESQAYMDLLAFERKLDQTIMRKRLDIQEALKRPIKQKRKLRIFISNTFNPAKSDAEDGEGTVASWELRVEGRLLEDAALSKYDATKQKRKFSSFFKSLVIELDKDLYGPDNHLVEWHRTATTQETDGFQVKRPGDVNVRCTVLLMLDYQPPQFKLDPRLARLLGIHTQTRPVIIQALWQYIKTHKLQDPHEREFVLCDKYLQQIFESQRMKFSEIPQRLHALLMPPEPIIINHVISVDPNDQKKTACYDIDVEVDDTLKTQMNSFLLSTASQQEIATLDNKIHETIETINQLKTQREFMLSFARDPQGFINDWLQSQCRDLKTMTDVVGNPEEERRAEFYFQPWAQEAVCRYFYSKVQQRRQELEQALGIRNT
UniProt P97496: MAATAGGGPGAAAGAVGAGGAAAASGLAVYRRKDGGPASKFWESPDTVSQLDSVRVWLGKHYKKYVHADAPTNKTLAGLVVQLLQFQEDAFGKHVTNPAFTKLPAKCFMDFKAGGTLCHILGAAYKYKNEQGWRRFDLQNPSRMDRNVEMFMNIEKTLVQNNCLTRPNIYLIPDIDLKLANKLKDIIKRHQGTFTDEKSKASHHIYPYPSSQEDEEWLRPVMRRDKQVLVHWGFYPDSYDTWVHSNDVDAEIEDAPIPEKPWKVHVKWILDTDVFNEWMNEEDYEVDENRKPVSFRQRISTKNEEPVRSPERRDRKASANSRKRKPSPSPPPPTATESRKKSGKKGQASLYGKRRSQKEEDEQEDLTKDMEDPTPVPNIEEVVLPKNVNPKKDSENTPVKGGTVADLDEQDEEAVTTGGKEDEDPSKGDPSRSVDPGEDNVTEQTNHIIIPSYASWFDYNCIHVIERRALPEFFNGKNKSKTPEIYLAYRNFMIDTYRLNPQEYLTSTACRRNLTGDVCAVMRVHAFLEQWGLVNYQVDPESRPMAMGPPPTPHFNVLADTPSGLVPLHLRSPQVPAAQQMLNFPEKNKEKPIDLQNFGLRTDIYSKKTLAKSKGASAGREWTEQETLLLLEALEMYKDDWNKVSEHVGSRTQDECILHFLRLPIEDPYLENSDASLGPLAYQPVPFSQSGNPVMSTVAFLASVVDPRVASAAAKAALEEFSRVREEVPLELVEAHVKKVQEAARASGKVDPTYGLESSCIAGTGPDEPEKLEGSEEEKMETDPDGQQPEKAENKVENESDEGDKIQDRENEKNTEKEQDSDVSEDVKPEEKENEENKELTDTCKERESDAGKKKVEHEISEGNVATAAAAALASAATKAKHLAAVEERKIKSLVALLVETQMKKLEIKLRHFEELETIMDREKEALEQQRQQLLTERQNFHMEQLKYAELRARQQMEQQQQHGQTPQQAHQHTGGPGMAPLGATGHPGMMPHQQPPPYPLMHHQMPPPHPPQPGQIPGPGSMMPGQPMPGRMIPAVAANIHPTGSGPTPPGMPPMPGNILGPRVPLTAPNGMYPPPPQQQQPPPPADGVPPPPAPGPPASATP
UniProt P70288: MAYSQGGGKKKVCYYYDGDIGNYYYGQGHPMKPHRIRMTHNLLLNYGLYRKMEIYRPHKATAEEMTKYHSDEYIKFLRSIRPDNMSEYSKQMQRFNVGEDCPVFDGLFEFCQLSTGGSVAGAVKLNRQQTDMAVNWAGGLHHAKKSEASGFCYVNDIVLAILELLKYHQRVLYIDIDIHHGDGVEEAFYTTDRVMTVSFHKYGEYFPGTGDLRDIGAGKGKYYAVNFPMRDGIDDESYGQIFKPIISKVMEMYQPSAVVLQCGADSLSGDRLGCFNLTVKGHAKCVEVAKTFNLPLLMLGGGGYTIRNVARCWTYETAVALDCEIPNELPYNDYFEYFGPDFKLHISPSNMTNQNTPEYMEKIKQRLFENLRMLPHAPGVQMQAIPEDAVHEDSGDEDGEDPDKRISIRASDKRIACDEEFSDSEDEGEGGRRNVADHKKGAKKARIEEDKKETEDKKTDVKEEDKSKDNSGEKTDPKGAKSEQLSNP

Target: BAF60a-BirA* fusion protein (UniProt Q61466)
Experiment: proximity labelling; BioID-based proteomics in Min6 cells expressing BAF60a-BirA* fusion protein; mass spectrometry

Substance | binding
BAF155 (from UniProt P97496 1-1104) | binds
Hdac2 (from UniProt P70288 1-488) | binds

No constants are given. Whether binding was seen depends on the method and setting. In cells and extracts the contact can be indirect. Here binding means that the protein was enriched with, or labelled near, the bait; the list need not be complete.
